Data: PMC6402707
Results are given in words; binding and its absence hold for the method and conditions named. In cells and extracts the contact can be indirect. Some results given as binding are weak or reduced against the parent protein; the word gives no strength. For some assays here: Sequences can lack the tags named with a protein.

Assays:
[1] = target: T1, MET-2 (methyltransferase-2) (C. elegans (endogenous in adult worms)) (UniProt P34544); assay: co-IP; IP with anti-MET-2 polyclonal antibody from nuclear extract of him-8(e1489) adults; met-2(n4256) as negative control; how SMRC-1 was identified in the precipitate is not told
T1 sequence: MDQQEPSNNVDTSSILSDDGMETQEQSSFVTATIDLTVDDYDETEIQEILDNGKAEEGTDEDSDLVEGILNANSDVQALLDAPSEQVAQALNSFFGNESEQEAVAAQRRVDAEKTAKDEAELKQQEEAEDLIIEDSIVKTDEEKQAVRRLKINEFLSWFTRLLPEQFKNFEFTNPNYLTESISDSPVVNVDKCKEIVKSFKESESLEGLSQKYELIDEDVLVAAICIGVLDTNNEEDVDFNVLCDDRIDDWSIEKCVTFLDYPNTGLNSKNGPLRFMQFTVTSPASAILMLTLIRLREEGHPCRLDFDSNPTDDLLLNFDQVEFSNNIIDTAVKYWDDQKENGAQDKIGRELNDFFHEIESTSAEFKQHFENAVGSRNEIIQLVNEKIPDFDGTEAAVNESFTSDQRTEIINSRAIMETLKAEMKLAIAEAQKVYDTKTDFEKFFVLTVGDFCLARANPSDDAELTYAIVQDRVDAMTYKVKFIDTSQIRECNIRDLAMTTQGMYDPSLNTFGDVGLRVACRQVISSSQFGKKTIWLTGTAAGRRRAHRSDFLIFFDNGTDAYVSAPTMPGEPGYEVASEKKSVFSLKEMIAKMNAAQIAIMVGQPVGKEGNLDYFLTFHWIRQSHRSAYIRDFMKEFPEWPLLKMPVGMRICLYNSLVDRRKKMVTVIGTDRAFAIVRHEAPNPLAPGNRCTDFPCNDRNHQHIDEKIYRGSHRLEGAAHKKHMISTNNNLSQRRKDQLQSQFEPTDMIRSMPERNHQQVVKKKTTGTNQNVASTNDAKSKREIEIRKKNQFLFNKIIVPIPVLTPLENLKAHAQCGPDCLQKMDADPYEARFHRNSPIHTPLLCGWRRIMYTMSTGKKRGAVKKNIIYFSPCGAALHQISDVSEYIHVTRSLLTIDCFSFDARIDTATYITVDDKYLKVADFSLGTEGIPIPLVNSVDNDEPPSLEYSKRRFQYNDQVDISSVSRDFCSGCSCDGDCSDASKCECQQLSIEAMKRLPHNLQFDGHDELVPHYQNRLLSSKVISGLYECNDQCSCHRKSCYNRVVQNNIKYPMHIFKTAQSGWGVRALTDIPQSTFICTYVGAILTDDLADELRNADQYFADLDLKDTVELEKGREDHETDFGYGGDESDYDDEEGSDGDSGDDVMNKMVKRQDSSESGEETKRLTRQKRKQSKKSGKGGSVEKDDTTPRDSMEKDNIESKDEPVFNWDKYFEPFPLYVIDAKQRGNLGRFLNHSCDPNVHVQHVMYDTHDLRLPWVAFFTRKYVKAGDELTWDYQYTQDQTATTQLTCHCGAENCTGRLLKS

[2] = target: T2, 3xFLAG::SMRC-1 (C. elegans) (UniProt Q8MNV7); assay: co-IP; IP with anti-FLAG antibody from extract of endogenously tagged 3xflag::smrc-1 adults; blot probed with anti-MET-2; wildtype extract as control
T2 sequence: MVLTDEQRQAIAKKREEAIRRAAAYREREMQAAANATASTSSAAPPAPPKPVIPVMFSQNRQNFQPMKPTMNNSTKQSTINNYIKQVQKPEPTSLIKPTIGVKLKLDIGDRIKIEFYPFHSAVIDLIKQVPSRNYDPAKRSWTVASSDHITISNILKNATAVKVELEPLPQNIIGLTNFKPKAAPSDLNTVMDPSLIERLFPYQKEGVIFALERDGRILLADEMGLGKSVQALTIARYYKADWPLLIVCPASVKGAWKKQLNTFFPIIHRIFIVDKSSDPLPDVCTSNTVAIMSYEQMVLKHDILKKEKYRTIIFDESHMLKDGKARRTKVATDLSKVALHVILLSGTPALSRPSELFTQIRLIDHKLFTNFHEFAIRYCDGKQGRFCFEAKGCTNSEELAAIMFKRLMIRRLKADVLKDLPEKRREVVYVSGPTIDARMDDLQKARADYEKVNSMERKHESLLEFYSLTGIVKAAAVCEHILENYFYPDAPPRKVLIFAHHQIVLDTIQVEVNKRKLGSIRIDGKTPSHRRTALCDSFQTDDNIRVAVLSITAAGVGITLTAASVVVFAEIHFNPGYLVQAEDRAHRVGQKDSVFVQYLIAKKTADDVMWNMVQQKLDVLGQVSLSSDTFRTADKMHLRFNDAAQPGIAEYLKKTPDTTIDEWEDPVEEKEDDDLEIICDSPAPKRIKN

B1: SMRC-1 (protein, UniProt Q8MNV7 1-690)
chain: MVLTDEQRQAIAKKREEAIRRAAAYREREMQAAANATASTSSAAPPAPPKPVIPVMFSQNRQNFQPMKPTMNNSTKQSTINNYIKQVQKPEPTSLIKPTIGVKLKLDIGDRIKIEFYPFHSAVIDLIKQVPSRNYDPAKRSWTVASSDHITISNILKNATAVKVELEPLPQNIIGLTNFKPKAAPSDLNTVMDPSLIERLFPYQKEGVIFALERDGRILLADEMGLGKSVQALTIARYYKADWPLLIVCPASVKGAWKKQLNTFFPIIHRIFIVDKSSDPLPDVCTSNTVAIMSYEQMVLKHDILKKEKYRTIIFDESHMLKDGKARRTKVATDLSKVALHVILLSGTPALSRPSELFTQIRLIDHKLFTNFHEFAIRYCDGKQGRFCFEAKGCTNSEELAAIMFKRLMIRRLKADVLKDLPEKRREVVYVSGPTIDARMDDLQKARADYEKVNSMERKHESLLEFYSLTGIVKAAAVCEHILENYFYPDAPPRKVLIFAHHQIVLDTIQVEVNKRKLGSIRIDGKTPSHRRTALCDSFQTDDNIRVAVLSITAAGVGITLTAASVVVFAEIHFNPGYLVQAEDRAHRVGQKDSVFVQYLIAKKTADDVMWNMVQQKLDVLGQVSLSSDTFRTADKMHLRFNDAAQPGIAEYLKKTPDTTIDEWEDPVEEKEDDDLEIICDSPAPKRIKN
binding [1]: binds

B2: MET-2 (methyltransferase-2) (protein, UniProt P34544 1-1304)
chain: MDQQEPSNNVDTSSILSDDGMETQEQSSFVTATIDLTVDDYDETEIQEILDNGKAEEGTDEDSDLVEGILNANSDVQALLDAPSEQVAQALNSFFGNESEQEAVAAQRRVDAEKTAKDEAELKQQEEAEDLIIEDSIVKTDEEKQAVRRLKINEFLSWFTRLLPEQFKNFEFTNPNYLTESISDSPVVNVDKCKEIVKSFKESESLEGLSQKYELIDEDVLVAAICIGVLDTNNEEDVDFNVLCDDRIDDWSIEKCVTFLDYPNTGLNSKNGPLRFMQFTVTSPASAILMLTLIRLREEGHPCRLDFDSNPTDDLLLNFDQVEFSNNIIDTAVKYWDDQKENGAQDKIGRELNDFFHEIESTSAEFKQHFENAVGSRNEIIQLVNEKIPDFDGTEAAVNESFTSDQRTEIINSRAIMETLKAEMKLAIAEAQKVYDTKTDFEKFFVLTVGDFCLARANPSDDAELTYAIVQDRVDAMTYKVKFIDTSQIRECNIRDLAMTTQGMYDPSLNTFGDVGLRVACRQVISSSQFGKKTIWLTGTAAGRRRAHRSDFLIFFDNGTDAYVSAPTMPGEPGYEVASEKKSVFSLKEMIAKMNAAQIAIMVGQPVGKEGNLDYFLTFHWIRQSHRSAYIRDFMKEFPEWPLLKMPVGMRICLYNSLVDRRKKMVTVIGTDRAFAIVRHEAPNPLAPGNRCTDFPCNDRNHQHIDEKIYRGSHRLEGAAHKKHMISTNNNLSQRRKDQLQSQFEPTDMIRSMPERNHQQVVKKKTTGTNQNVASTNDAKSKREIEIRKKNQFLFNKIIVPIPVLTPLENLKAHAQCGPDCLQKMDADPYEARFHRNSPIHTPLLCGWRRIMYTMSTGKKRGAVKKNIIYFSPCGAALHQISDVSEYIHVTRSLLTIDCFSFDARIDTATYITVDDKYLKVADFSLGTEGIPIPLVNSVDNDEPPSLEYSKRRFQYNDQVDISSVSRDFCSGCSCDGDCSDASKCECQQLSIEAMKRLPHNLQFDGHDELVPHYQNRLLSSKVISGLYECNDQCSCHRKSCYNRVVQNNIKYPMHIFKTAQSGWGVRALTDIPQSTFICTYVGAILTDDLADELRNADQYFADLDLKDTVELEKGREDHETDFGYGGDESDYDDEEGSDGDSGDDVMNKMVKRQDSSESGEETKRLTRQKRKQSKKSGKGGSVEKDDTTPRDSMEKDNIESKDEPVFNWDKYFEPFPLYVIDAKQRGNLGRFLNHSCDPNVHVQHVMYDTHDLRLPWVAFFTRKYVKAGDELTWDYQYTQDQTATTQLTCHCGAENCTGRLLKS
binding [2]: binds
